Results: patent publication US20120208208A1
These are yes or no findings as the source states them, for the method shown. Some entries that bind do so weakly or less than the wild type.

Protein sequences, listed by entry. Tags and fused reporters are not part of them. Residues count along the entry.
UniProt Q80W65, residues 35-694: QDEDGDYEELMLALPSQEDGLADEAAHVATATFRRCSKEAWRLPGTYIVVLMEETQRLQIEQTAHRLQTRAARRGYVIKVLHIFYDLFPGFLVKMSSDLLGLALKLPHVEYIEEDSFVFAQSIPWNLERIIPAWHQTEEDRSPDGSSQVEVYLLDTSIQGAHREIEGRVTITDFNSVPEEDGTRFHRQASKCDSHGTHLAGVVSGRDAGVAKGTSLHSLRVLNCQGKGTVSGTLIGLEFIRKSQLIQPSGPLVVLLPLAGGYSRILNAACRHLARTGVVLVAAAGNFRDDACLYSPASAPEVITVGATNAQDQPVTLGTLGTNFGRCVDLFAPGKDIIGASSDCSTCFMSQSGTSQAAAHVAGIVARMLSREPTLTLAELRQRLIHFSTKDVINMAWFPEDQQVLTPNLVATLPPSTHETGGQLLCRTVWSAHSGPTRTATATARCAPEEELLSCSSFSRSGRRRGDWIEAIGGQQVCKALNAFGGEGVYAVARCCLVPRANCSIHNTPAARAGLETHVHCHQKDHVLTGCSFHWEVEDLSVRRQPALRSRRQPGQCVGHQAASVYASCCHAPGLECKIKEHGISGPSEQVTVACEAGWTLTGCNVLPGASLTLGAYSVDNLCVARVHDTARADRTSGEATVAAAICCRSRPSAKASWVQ

Target: mouse PCSK9 (mouse) (UniProt Q80W65)
Experiment: statement in the DELFIA example; biotinylated Fab used as detection reagent for mouse PCSK9

B1: anti-PCSK9 Fab 1A08 (2CX1A08 Fab, PCSK9_2_CX1_A08) (Fab, V domains shown)
VH: QVQLVQSGAEVKKPGESLKISCKGSGYSFSTYWIGWVRQMPGKGLEWMGIIDPGDSFTRYSPSFQGQVTISADKSISTAYLQWSSLKASDTAMYYCARGYHDEPYGFFDVWGQGTLVTVSS
VL: DIQMTQSPSSLSASVGDRVTITCRASQDISNYLTWYQQKPGKAPKLLIYAASSLQSGVPSRFSGSGSGTDFTLTISSLQPEDFATYYCFQFDNVPLTFGQGTKVEIKR
modifications: biotinylated (sites not given)
binding: binds
